The target of one test is T1, Spindle E (Drosophila) (UniProt Q9VF26).
T1 sequence: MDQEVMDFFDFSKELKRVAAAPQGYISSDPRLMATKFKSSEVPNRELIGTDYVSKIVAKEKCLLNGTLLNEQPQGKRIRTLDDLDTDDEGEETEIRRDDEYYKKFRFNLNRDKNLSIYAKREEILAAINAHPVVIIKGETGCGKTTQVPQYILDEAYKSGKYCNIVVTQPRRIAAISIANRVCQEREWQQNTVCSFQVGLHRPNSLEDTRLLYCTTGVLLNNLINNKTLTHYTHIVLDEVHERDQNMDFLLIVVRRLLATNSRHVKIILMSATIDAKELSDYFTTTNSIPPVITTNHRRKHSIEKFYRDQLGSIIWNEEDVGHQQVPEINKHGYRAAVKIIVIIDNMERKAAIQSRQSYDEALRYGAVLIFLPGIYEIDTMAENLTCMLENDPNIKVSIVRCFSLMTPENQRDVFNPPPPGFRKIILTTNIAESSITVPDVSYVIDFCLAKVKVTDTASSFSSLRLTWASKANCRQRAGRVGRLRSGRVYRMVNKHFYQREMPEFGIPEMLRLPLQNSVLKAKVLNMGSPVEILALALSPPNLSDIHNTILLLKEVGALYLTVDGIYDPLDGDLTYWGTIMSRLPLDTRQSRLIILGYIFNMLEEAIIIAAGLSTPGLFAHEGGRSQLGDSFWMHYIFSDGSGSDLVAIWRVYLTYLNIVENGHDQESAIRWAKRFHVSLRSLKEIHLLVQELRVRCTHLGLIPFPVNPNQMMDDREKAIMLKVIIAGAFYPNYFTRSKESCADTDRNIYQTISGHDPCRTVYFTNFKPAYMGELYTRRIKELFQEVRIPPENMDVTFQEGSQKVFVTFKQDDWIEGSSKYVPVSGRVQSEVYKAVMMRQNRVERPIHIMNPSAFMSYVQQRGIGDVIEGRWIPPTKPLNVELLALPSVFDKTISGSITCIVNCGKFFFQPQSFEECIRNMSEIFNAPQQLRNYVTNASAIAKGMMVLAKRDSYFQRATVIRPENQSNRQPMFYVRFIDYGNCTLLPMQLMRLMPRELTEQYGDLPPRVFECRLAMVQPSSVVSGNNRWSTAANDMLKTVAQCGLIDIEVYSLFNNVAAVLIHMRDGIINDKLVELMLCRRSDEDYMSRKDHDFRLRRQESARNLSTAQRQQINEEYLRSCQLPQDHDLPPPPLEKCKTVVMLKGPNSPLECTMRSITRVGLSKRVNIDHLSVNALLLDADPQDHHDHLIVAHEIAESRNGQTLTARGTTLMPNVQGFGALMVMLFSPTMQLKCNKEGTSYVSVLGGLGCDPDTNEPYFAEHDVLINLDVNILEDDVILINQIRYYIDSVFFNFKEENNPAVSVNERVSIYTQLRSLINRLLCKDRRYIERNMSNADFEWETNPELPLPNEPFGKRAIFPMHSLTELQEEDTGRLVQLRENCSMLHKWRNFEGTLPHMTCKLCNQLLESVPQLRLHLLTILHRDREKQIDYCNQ
As to the kind of experiment: ReLo.

In another test the target is Tapas (Drosophila). The experiment in a line: ReLo.
The target in another test is Tejas (Drosophila). As to the kind of experiment: ReLo.
The target in test [1] is GST-superfolder-GFP (GsfG)-Tejas (Drosophila). As to the kind of experiment: pull-down.
Test [2] deals with Tejas eTudor domain (aa 334-559) (Drosophila). The experiment in a line: ReLo.

Results are given in words; binding and its absence hold for the method and conditions named. For some of these results: Binding can be weak; no strength is given. For some of these results: Tags and fused reporters may be left off the sequences shown.

Take Tapas (Drosophila): the binding result with Spindle E (Drosophila) was “no binding”. Consider Tejas D320K (Drosophila), for which, in the test with Spindle E (Drosophila), the binding result is recorded as “no binding”.

With Qin (Drosophila), the binding entry in the test with Spindle E (Drosophila) is recorded as “binds”. Same read-out and setting: the entry for Tejas V347E (Drosophila) is “binds”; for Tejas A332E/V333E (Drosophila) it is “no binding”.

B1: Argonaute 3 (protein, UniProt Q7PLK0 1-867)
chain: MSGRGNLLSLFNKNAGNMGKSISSKDHEIDSGLDFNNSESSGERLLSSHNIETDLITTLQHVNISVGRGRARLIDTLKTDDHTSNQFITSESKENITKKTKGPESEAIASENGLFFPDLIYGSKGSSVNIYCNYLKLTTDESKGVFNYEVRFFPPIDSVHLRIKYLNDHKDKLGGTKTFDGNTLYLPILLPNKMTVFISKAEDVELQIRILYKKKEEMRNCTQLYNILFDRVMKVLNYVKFDRKQFDPSRPKIIPLAKLEVWPGYVTAVDEYKGGLMLCCDVSHRILCQKTVLEMLVDLYQQNVEHYQESARKMLVGNIVLTRYNNRTYKINDICFDQNPTCQFEIKTGCTSYVEYYKQYHNINIKDVNQPLIYSIKKSRGIPAERENLQFCLIPELCYLTGLRDEVRSDNKLMREIATFTRVSPNQRQMALNKFYENVSNTPAAQEILNSWGLSLTNNSNKISGRQMDIEQIYFSKISVSAGRSAEFSKHAVTNEMLKVVHLSKWIIIHLRNYRQAATSLLDNMKQACESLGMNISNPTMISLDHDRIDAYIQALRRNITMNTQMVVCICHNRRDDRYAAIKKICCSEIPIPSQVINAKTLQNDLKIRSVVQKIVLQMNCKLGGSLWTVKIPFKNVMICGIDSYHDPSNRGNSVAAFVASINSSYSQWYSKAVVQTKREEIVNGLSASFEIALKMYRKRNGKLPTNIIIYRDGIGDGQLYTCLNYEIPQFEMVCGNRIKISYIVVQKRINTRIFSGSGIHLENPLPGTVVDQHITKSNMYDFFLVSQLVRQGTVTPTHYVVLRDDCNYGPDIIQKLSYKLCFLYYNWAGTVRIPACCMYAHKLAYLIGQSIQRDVAEALSEKLFYL
Turning to B1, in the test with Tapas (Drosophila), the binding entry is listed as “no binding”.

B2: Maelstrom (protein, UniProt Q9VNS0 1-459)
chain: MAPKKHSGFMMFVNEWRNRNAEGRRMTLAQAVSHCGTIWEKMNTQQRGPYNSGGKDANVAQRAKRESSNGHGQVDKAQREATESLMDMKRTIERLVLNAKMSHDLENAKFVFVAFNYFTKALTTDVYVPAEFAACEYSLKEGIRSIYSTMIDPGQIIFGQGSDALLHSSTTHDLPLPPNALGEKNMTKLYRNIVDYLSKCQGKGKTLVVFTPAENITMVKSCFRYLECDDDFRDGGEKIQVFDIQYLLFILKKEVMNVADLNDEKINKFATDAFFKKDFFEFTAGIACQYHEDNDRTKYCTQSMVTRWAYTFTDFMCGDLAITVQPGKHIPAQTKPNYLIISSYASSLDHESSFDSFYSLPGSGVKKESQPEACSLSSSRLSVASSSYKPIDHTSFAANLNEVSEFPSLGMRNSSKHHGIAASAQREWNARNLPTHSRLIRKVSDNDFSVNGADGKLKK
As to B2, the results for the binding result in the test with Tapas (Drosophila) and with Tejas (Drosophila) were “no binding” and “binds”, respectively.

B3: full-length MBP-Maelstrom (protein, UniProt Q9VNS0 1-459)
chain: MAPKKHSGFMMFVNEWRNRNAEGRRMTLAQAVSHCGTIWEKMNTQQRGPYNSGGKDANVAQRAKRESSNGHGQVDKAQREATESLMDMKRTIERLVLNAKMSHDLENAKFVFVAFNYFTKALTTDVYVPAEFAACEYSLKEGIRSIYSTMIDPGQIIFGQGSDALLHSSTTHDLPLPPNALGEKNMTKLYRNIVDYLSKCQGKGKTLVVFTPAENITMVKSCFRYLECDDDFRDGGEKIQVFDIQYLLFILKKEVMNVADLNDEKINKFATDAFFKKDFFEFTAGIACQYHEDNDRTKYCTQSMVTRWAYTFTDFMCGDLAITVQPGKHIPAQTKPNYLIISSYASSLDHESSFDSFYSLPGSGVKKESQPEACSLSSSRLSVASSSYKPIDHTSFAANLNEVSEFPSLGMRNSSKHHGIAASAQREWNARNLPTHSRLIRKVSDNDFSVNGADGKLKK
Consider B3, for which, in test [1], the binding result is “binds”.

B4: Maelstrom C-terminal region (aa 334-459) (domain or fragment, UniProt Q9VNS0 334-459)
chain: TKPNYLIISSYASSLDHESSFDSFYSLPGSGVKKESQPEACSLSSSRLSVASSSYKPIDHTSFAANLNEVSEFPSLGMRNSSKHHGIAASAQREWNARNLPTHSRLIRKVSDNDFSVNGADGKLKK
On to B4, for which, in test [2], the binding result is on record as “binds”.

The values above are taken from paper doi:10.1101/2024.05.31.596839.
